For experiment [1], the target named is bacteriophage T7 primase-helicase gp4 Y111A (63 kDa form) (bacteriophage T7) (UniProt P03692). Description: condition: only in the absence of ssDNA and [β,γ-CH2] dTTP; 8.7 nM gp4 hexamer; mass photometry; self-association; 8.7 nM gp4 (hexamer concentration) in 40 mM Tris-HCl pH 7.5, 150 mM KCl, 10 mM MgCl2, 25 °C, 15 min, in the absence of ligand; Refeyn OneMP; both purified.

By UniProt entry, the sequences of proteins in these tests, tags left out. Where a name states a change or a piece, a line headed by the entry shows the natural chain unless it says otherwise.
UniProt P03692: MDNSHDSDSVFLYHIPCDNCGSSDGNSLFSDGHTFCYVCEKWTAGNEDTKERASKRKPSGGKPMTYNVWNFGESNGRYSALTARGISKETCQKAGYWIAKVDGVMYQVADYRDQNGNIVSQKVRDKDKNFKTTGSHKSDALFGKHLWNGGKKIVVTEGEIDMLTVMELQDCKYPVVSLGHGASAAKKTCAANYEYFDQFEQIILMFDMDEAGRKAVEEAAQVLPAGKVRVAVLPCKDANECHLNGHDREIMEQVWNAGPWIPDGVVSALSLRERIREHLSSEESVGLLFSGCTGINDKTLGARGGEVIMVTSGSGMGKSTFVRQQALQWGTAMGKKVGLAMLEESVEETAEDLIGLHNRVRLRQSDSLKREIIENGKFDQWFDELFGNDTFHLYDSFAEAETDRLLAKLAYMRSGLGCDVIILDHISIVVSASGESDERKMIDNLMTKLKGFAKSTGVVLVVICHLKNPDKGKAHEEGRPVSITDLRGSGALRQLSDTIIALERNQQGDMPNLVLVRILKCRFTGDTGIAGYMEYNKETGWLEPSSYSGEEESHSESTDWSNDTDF

Experiment [2] concerns the target bacteriophage T7 primase-helicase gp4, wild type (63 kDa form) (bacteriophage T7) (UniProt P03692). Described as above.

These are yes or no findings as the source states them, for the method shown.

Regarding “bacteriophage T7 primase-helicase gp4 Y111A (63 kDa form) (from UniProt P03692 1-566) (enzyme)”, the binding result in experiment [1] was “no binding”.

Regarding “bacteriophage T7 primase-helicase gp4, wild type (63 kDa form) (from UniProt P03692 1-566) (enzyme)”, the binding result in experiment [2] is “no binding”.

Source of the values: paper PMC9198812.
